For one substance, binding results are on record in paper PMC2657825.

Protein sequences, listed by entry. Tags and fused reporters are not part of them.
UniProt P07355: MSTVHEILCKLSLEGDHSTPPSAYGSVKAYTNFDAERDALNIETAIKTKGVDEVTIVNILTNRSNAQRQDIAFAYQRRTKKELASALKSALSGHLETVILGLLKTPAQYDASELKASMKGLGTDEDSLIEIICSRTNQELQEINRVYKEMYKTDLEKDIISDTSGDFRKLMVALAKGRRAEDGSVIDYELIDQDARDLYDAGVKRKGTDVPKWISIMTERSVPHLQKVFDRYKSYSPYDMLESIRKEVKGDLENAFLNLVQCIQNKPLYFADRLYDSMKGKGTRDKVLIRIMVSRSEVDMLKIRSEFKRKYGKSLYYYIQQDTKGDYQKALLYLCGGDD
UniProt P60903: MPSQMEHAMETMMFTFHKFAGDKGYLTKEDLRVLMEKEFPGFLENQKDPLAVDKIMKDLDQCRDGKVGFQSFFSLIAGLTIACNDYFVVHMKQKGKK

The target in this assay is Anx2C-FR1 (Annexin 2 fused to fragment 1 of YFP, Anx2 at the C-terminus of the construct) (UniProt P07355). The assay is described as follows: split reporter; YFP fragment fusions cotransfected into 293T cells (with empty vector or Arf6/Q67L), fixed 36 h after transfection, DAPI, confocal microscopy.

Results are given in words; binding and its absence hold for the method and conditions named. Binding seen in cells or lysates may run through a third protein. Some results given as binding are weak or reduced against the parent protein; the word gives no strength.

On to “p11N-FR2 (p11 fused to fragment 2 of YFP) (from UniProt P60903 1-97)”, for which the binding entry was “binds”.
